Source: patent US20160251404A1 (Molecular Partners, published 2016)
No constants are given. Whether binding was seen depends on the method and setting. Some entries that bind do so weakly or less than the wild type.

Sequences of proteins named here, by UniProt entry; tags and fusion partners are left off. Residues count along the entry.
UniProt P14210, residues 32-728: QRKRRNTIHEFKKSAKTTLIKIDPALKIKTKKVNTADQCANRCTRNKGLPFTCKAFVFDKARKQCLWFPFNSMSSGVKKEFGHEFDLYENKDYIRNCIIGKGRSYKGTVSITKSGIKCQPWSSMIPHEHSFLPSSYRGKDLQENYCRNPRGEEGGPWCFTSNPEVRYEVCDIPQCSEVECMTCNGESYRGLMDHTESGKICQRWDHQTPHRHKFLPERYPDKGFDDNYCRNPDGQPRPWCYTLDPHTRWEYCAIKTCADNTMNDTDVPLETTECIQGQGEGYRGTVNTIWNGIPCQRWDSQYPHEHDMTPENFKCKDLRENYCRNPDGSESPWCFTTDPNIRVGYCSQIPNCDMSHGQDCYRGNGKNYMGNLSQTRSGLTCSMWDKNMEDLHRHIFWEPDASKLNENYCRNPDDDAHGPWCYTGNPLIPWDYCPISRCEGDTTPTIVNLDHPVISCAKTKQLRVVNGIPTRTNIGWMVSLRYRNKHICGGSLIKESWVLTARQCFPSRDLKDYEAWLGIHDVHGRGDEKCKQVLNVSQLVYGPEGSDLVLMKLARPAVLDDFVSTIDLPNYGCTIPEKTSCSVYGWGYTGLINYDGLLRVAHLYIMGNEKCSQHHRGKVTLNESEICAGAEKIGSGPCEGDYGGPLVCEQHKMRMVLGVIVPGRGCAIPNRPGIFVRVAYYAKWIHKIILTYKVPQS

Experiments:
[1] = molecular target: recombinant human HGF (hepatocyte growth factor) (human) (UniProt P14210); test: SPR (ProteOn), human HGF immobilized on the chip, DARPin injected for 120 s, then buffer flow
[2] = molecular target: recombinant human HGF (hepatocyte growth factor) (human) (UniProt P14210); test: crude E. coli extract receptor competition ELISA (biotinylated HGF, c-Met-Fc on plate)
[3] = molecular target: recombinant human HGF (hepatocyte growth factor) (human) (UniProt P14210); test: SPR, human HGF immobilized, 100 nM DARPin #51 injected for 120 s as the first DARPin
[4] = molecular target: recombinant human HGF (hepatocyte growth factor) (human) (UniProt P14210); test: receptor competition ELISA: DARPin premixed with human HGF, binding of HGF to coated c-Met (Fc chimera) detected; the blocked partner is c-Met
[5] = molecular target: recombinant human HGF (hepatocyte growth factor) (human) (UniProt P14210); test: competition SPR, human HGF immobilized, 100 nM DARPin
[6] = molecular target: recombinant human HGF (hepatocyte growth factor) (human) (UniProt P14210); test: SPR, human HGF immobilized and first loaded with 100 nM DARPin #51 for 120 s, then 100 nM DARPin #57 injected for 60 s
[7] = molecular target: recombinant human HGF (hepatocyte growth factor) (human) (UniProt P14210); test: competition SPR, human HGF immobilized, 100 nM DARPin injected after DARPin #51

Measured: binding

B1: DARPin #51 (designed binder)
chain: MRGSHHHHHHGSDLGKKLLEAARAGQDDEVRILLKAGADVNAKDRYGDTPLHLAADIGHLEIVEVLLKAGADVNAEDYFGNTPLHLAASYGHLEIVEVLLKAGADVNAKDDYGNTPLHLAANTGHLEIVEVLLKAGADVNAQDKSGKTPADLAADAGHEDIAEVLQKLN
not listed: [6] | [7]
binds: all other assays above

B2: DARPin #43 (designed binder)
chain: MRGSHHHHHHGSDLGKKLLEAARAGQDDEVRILMANGADVNAKYEDGLTPLHLAAFYGHLEIVEVLLKHGADVNATDAWGHTPLHLAAYYGHLEIVEVLLKYGADVNTHDKEGMTALHLAALTGHLEIVEVLLKNGADVNAQDKFGKTAFDISIDNGNEDLAEILQKLN
binds: [2] | [4]

B3: DARPin #57 (designed binder)
chain: MRGSHHHHHHGSDLGKKLLEAARAGQDDEVRILMANGADVNAHDYLGLTPLHLAASDGHLEIVEVLLKHGADVNAYDYNGLTPLHLAANNGHLEIVEVLLKYGADVNAFDVAGYTPLHLAAYFGHLEIVEVLLKYGADVNAQDKFGKTAFDISIDNGNEDLAEILQKLN
binds: [2] | [6] | [7]
